Measured values: US20060105442, “Promoters and proteins from Clostridium thermocellum and uses thereof” (published 2006)
For at least one entry, the source does not settle the construct or the ends of the probe. Results from cells or extracts need not show a direct contact. A negative result means that nothing was seen under these conditions.

Test system: C. thermocellum crude extract, cellobiose-grown (GlyR3 activity assayed) (Clostridium thermocellum)
Experiment: EMSA
Settings: 200 and 500 ng extract of cellobiose-grown cells; protein in an extract; label: 5'-biotin

“AATCAATAAAATTATAACATATTACTTCAAAAGTGGGGACAAAAAAGAACAAAAAAATTGAAATTTTGATGAAAAATACAAGATATGAATTAAGTGGGCCGAATAAAAACTGGACAGAGAAGAAGAAAACGTGATATAATTAAATTAGAATGAACGCGCGTACATTATTGAATAATCCAGTGTTAAATGGTTTCAGTTTACGATTTCAAATGTTTATATCCAATTTACATTTAAAAACATACAAAACATCAAAAGTATTTAATACCAATATTTAAAACACAATATTTCAGGAGGAAAAAA (double strand) [celC promoter first (upstream) 100 bp half]”: no binding.
